From PubChem BioAssay record AID1347104 (NCATS, 2019).

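RD rhabdomyosarcoma cells exposed to compounds for 48 hours, with viable-cell ATP measured by CellTiter-Glo luminescence to detect cell killing. Compounds were run as dilution series topping out near 46 µM, with the lowest MIPE point at 0.78 nM. The value is the fitted half-maximal potency (AC50) for loss of viability; a lower number means a more potent cytotoxic compound. Calls come from NCATS curve-class scoring; compounds scoring from 1 to 39, such as weak, poorly fitted or top-dose-only curves, are filed as inconclusive.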

Values are in µM. All entries here are filed as inconclusive. Only part of the assay is shown, chiefly results filed as inconclusive. Potencies fitted to partial, single-point or poorly fitting curves are rough. Some entries filed as inconclusive have a full curve. Activity scores are not listed here. An entry listed twice with the same setting is a separate test.

structure	fitted potency (µM)	curve as filed
CCc1cccc(N(C)C(N)=Nc2cccc3ccccc23)c1	14.96	cytotoxic, partial curve
Oc1cc(O)cc(C=Cc2ccc(O)c(O)c2)c1	16.63	cytotoxic, partial curve
CC1CC2C3CCC4=CC(=O)C=C[C@]4(C)[C@@]3(F)[C@@H](O)C[C@]2(C)[C@@]1(O)C(=O)CO (some centres not stated)	18.65	cytotoxic, partial curve
Cc1ccc(N)cc1O	38.57	cytotoxic, single point
CC(C)c1ccc2c(c1)c(SC(C)(C)C)c(CC(C)(C)C(=O)O)n2Cc1ccc(Cl)cc1	37.22	cytotoxic, single point
CC1COc2c(N3CCN(C)CC3)c(F)cc3c(=O)c(C(=O)O)cn1c23 (configuration not stated)	18.65	cytotoxic, partial curve, poor fit
COC(=O)[C@H]1[C@H]2C[C@@H]3c4[nH]c5cc(OC)ccc5c4CCN3C[C@H]2C[C@@H](OC(=O)c2cc(OC)c(OC)c(OC)c2)[C@@H]1OC	29.86	cytotoxic, single point
CC(C)C(=O)Nc1ncc(-c2cc(C(F)F)nn2-c2c(Cl)cccc2Cl)s1	41.76	cytotoxic, single point
O=C(O)c1nc(=O)[nH]c(=O)[nH]1	2.04	cytotoxic, partial curve, poor fit
CC(=O)N/N=C/c1ccc([N+](=O)[O-])o1	26.61	cytotoxic, single point
CN1CCN(C2=Nc3cc(Cl)ccc3Nc3ccccc32)CC1	26.61	cytotoxic, single point
CCOC(=O)[C@@H](N)Cc1ccc(-c2cc(O[C@H](c3ccc(Cl)cc3-n3ccc(C)n3)C(F)(F)F)nc(N)n2)cc1	37.22	cytotoxic, single point
CN(C)CCCN1c2ccccc2Sc2ccccc21	29.86	cytotoxic, single point
O=Cc1ccc(O)c(O)c1O	26.61	cytotoxic, single point
CN1CCN(C2=Nc3cc(Cl)ccc3Nc3ccccc32)CC1	33.17	cytotoxic, single point
CC(=O)[C@H]1CC[C@H]2[C@@H]3CC=C4C[C@@H](O)CC[C@]4(C)[C@H]3CC[C@]12C	18.65	cytotoxic, partial curve
COC(=O)C=CC(=O)OC	0.5258	cytotoxic, full curve
CC(C)OC(=O)c1cc2c(OCC(O)CNC(C)(C)C)cccc2[nH]1 (configuration not stated)	23.72	cytotoxic, single point
Clc1ccc2c(c1)CCc1cccnc1C2=C1CCNCC1	21.14	cytotoxic, partial curve, poor fit
O=c1c(O)c(-c2ccc(O)c(O)c2)oc2cc(O)ccc12	29.57	cytotoxic, single point
Cc1coc2c1C(=O)C(=O)c1c-2ccc2c1CCCC2(C)C	9.35	cytotoxic, partial curve
COC(=O)C1C2CC3c4[nH]c5cc(OC)ccc5c4CCN3CC2CC(OC(=O)c2cc(OC)c(OC)c(OC)c2)C1OC (configuration not stated)	33.17	cytotoxic, single point
CC(C)C[C@@H](C(=O)N[C@H](C(=O)OC1CCCC1)c1ccccc1)[C@H](O)C(=O)NO	16.63	cytotoxic, partial curve
Nc1cc(C(F)(F)F)ccc1S	29.86	cytotoxic, single point
COc1cc(NC(C)CCCN)c2ncccc2c1 (configuration not stated)	21.14	cytotoxic, partial curve
Cc1nnc(C(C)C)n1C1C[C@H]2CC[C@@H](C1)N2CC[C@H](NC(=O)C1CCC(F)(F)CC1)c1ccccc1 (some centres not stated)	41.76	cytotoxic, single point
O=C(NCc1ccccc1)[C@H](Cc1ccccc1)NC(=O)[C@@H]1O[C@@H]1C(=O)NCCc1ccc(O)cc1	13.21	cytotoxic, partial curve
Cc1ccc2nc(NC(=O)CSc3nc4c(c(=O)n3-c3ccccc3)SCC4)sc2c1	18.65	cytotoxic, partial curve
CC(C)(C)c1nc(-c2cccc(NS(=O)(=O)c3c(F)cccc3F)c2F)c(-c2ccnc(N)n2)s1	5.899	cytotoxic, partial curve

Once more, the final 3:

structure	fitted potency (µM)	curve as filed
O=C(NCc1ccccc1)[C@H](Cc1ccccc1)NC(=O)[C@@H]1O[C@@H]1C(=O)NCCc1ccc(O)cc1	13.21	cytotoxic, partial curve
Cc1ccc2nc(NC(=O)CSc3nc4c(c(=O)n3-c3ccccc3)SCC4)sc2c1	18.65	cytotoxic, partial curve
CC(C)(C)c1nc(-c2cccc(NS(=O)(=O)c3c(F)cccc3F)c2F)c(-c2ccnc(N)n2)s1	5.899	cytotoxic, partial curve